As a reminder, the Papp is a coefficient for how fast a substance crosses the barrier. Read a low Papp as slow passage.

The values below come from PMC7822176, “Pursuing the Complexity of Alzheimer’s Disease: Discovery of Fluoren-9-Amines as Selective Butyrylcholinesterase Inhibitors and N-Methyl-D-Aspartate Receptor Antagonists” (Biomolecules, 2020).

SMILES strings stand for the structures.

One data set deals with hCMEC/D3 cell monolayer. In words: in vitro. As for the experimental part:
(§1) The D3 assay evaluates the ability of compounds to diffuse from the donor compartment through the D3/hCMEC cell membrane into the acceptor compartment. The D3 cells were seeded on a PET membrane (area 1.12 cm^2) with 3-µm pores of the 12-well plates with 12-mm inserts. […] The donor solution (750 µL) was added to the donor compartment (insert), and the same volume of Opti-MEM was added into the acceptor. The concentration of the drug in both compartments was measured by UV-VIS spectrophotometry in 5, 15, 30, and 60 min of incubation in triplicates. The apparent permeability coefficient (Papp) was calculated from the concentration ratios. Tightness of the D3 monolayer was conducted by the fluorescein isothiocyanate (FITC) test after each experiment. […] (1) Papp= dC/dt × Vr/A × C0 • A: area of the well/cell monolayer, • dC/dt: amount in the receiver compartment in given time, • Vr: volume of the receiver compartment, and • C0: the initial concentration of tested compounds.

The nature of the next data set: in vitro. The settings on record: human. On the procedure: as §1

Regarding `NS(=O)(=O)c1cc(C(=O)O)c(NCc2ccco2)cc1Cl` [Furosemide], the “CNS (+/−)” value with hCMEC/D3 cell monolayer is given as “CNS −”. Further, the Papp in “in vitro” stood at 13.9 ± 0.92 ×10⁻⁶ cm/s.
